According to patent US20240368668A1, “SUBSTRATES AND BIOMARKERS OF ADAMTS7” (The Broad Institute, Inc., priority 2021, published 2024):

Legend:
mouse ADAMTS7 [1] = assay: TMT10 TAILS N-terminomics, HUVEC experiment (process replicates, trypsin/AspN digest); assay type: cell-based, human; details: HUVEC TAILS experiment; total MS intensity of the N-terminal (neo-N-terminal) peptide identified by TAILS_id
Text: (§1) ADAMTS7 Expression, Cell Culture and Preparation of the Secreted Proteins—Full-length mouse Adamts7 1-1857 (Uniprot Q68SA9, WT or E373Q catalytic mutant) with a carboxyl terminal 3xFLAG tag was used to generate custom adenoviruses as previously described. Adeno-CMV-Luciferase (Ad-Luc) from Vector Biolabs was used as a negative control. Human Coronary Artery Smooth Muscle Cells (HCA-SMC) were obtained from Lonza and expanded in Lonza SmGM-2 media in 15 cm tissue culture plates. Twenty-four hours before media collection, near confluent plates were transduced with 50 MOI adenovirus and switched to Lonza Basal SM media with volumes of 20 ml per 15 cm plate. Expression of the Flag tagged ADAMTS7 was confirmed from the media using western blot and detected using the anti-Flag M2-HRP antibody (Sigma, A8592). Collected media was processed by adding protease inhibitors (1 mM EDTA and 1 mM PMSF) and clarified by 500 g×5 min spin at 4 C to pellet cell debris. Cell media supernatants were then passed through a 0.22 um filter and kept chilled. Processed media was then concentrated 50-100× using 3 kDa Centricon Plus-70 filter unit, spun at 3,500 g×60 min at 4 C. Approximately 10% of the processed, concentrated media was set aside for total secretome proteolytic analysis. The remaining 90% of the processed, concentrated media was buffer exchanged into 50 mM HEPES pH 8.0, 150 mM NaCl (2×50 ml) using the 3 kDa Centricon Plus-70 filter unit and concentrated to >2 mg/ml to serve as input for the TAILS experiment. Secretome and TAILS input samples were stored at −80° C.
(§2) For the first experiment, referred to as SMC1, 120 ml of media from 6×15 cm dishes was pooled from each condition (Luc, WT, EQ) and processed to produce three separate inputs for the TAILS experiment. Luc, WT and EQ inputs from the SMC1 experiment were each divided into triplicate 400 ug samples to generate technical replicate TAILS data. For the second experiment, referred to as SMC2, media was processed separately in triplicate for each condition (Luc1, Luc2, Luc3, WT1, WT2, WT3, EQ1, EQ2, EQ3) using 60 ml of media from 3×15 cm dishes for each process replicate. Inputs from the SMC2 experiment used process replicates of 300 ug each to generate TAILS data. The third experiment used input from cultured Human umbilical vein endothelial cells (HUVEC) from Lifeline Cell Technology grown in VascuLife Media and transduced in Lifeline Basal EC (+bFGF2 10 ng/ml). The HUVEC experiment used the same strategy as the SMC2 experiment, with 40 ml of media from 2×15 cm dishes for each process replicate and used 200 ug each to generate TAILS data. Inputs for process replicate experiments were restricted to the lowest concentration from the 9 parallel samples for SMC2 or HUVEC.
(§3) TMT10 isotopic labeling and negative selection of non-labeled peptides-Sample preparation was performed based on the TAILS protocol from the Overall lab with some modifications. From a single experiment, nine parallel protein samples in 50 mM HEPES pH 8.0, 150 mM NaCl were separately denatured with guanidinium chloride (Sigma, G4505) to reach a final concentration of 2.5M guanidinium chloride and 250 mM HEPES and incubated at 65° C. for 15 min. Reduction was achieved through addition of tris(2-carboxylethyl) phosphine (TCEP) at a final concentration of […] and incubated at 65° C. for 45 min. Alkylation reaction was performed with addition of iodoacetamide (IAA, Sigma, A3221) to a final concentration of 10 mM IAA for 15 min at room temperature in the dark. Following denaturation, reduction and alkylation steps, ten percent of each of the nine parallel protein samples was removed and combined to serve as a pooled reference. Isobaric tags were added to free amine groups using the TMT10plex Isobaric Mass Tagging Kit (ThermoFisher, 90113) with TMT channels randomly assigned to the nine samples and TMT 131 assigned to the pooled reference. […]

mouse ADAMTS7 [2] = assay: TMT10 TAILS N-terminomics, SMC2 experiment (process replicates, trypsin/AspN digest); assay type: cell-based; details: for SMC2 TAILS.total Intensity: SMC2 experiment, total intensity of the N-terminal (TAILS) peptide
Text: as §1, §2, §3

mouse ADAMTS7 [3] = assay: TMT10 TAILS N-terminomics, SMC1 experiment (Ad-mADAMTS7 WT vs EQ vs Luc, technical replicates, trypsin digest); assay type: cell-based; details: for SMC1 TAILS.total Intensity: TAILS HC Overlap, total intensity of the peptide
Outline: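 Full-length mouse ADAMTS7 (WT or E373Q mutant, C-terminal 3xFLAG) or luciferase was transduced via adenovirus, 50 MOI, into HCA-SMC (SMC1, SMC2) or HUVEC. SMC1: pooled media, technical triplicates 400 ug; SMC2: process triplicates 300 ug; HUVEC: process triplicates 200 ug, bFGF2 10 ng/ml.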

[4] = total intensity of the N-terminal peptide spectra, SMC rd2 TAILS fractions, AspN/GluC search
[5] = TAILS N-terminal peptide signal, SMC scale-up fractions, mouse ADAMTS7, label = TAILS_id (gene symbol_StartAA)
[6] = SMC rd2 TAILS, AspGluN search, total spectral intensity of the N-terminal peptide (TAILS_id = gene_StartAA cleavage site)
[7] = TAILS N-terminal peptide identified in SMC conditioned media (scale-up, fractions), mouse ADAMTS7, value listed per TAILS_id (protein_StartAA)
[8] = SMC rd2 TAILS, AspGluN digest, total MS intensity of the N-terminal peptide at the given StartAA
[9] = intensity of the N-terminal (TAILS) peptide in SMC scale-up TAILS experiment, fractions, peptide identified by TAILS_id (gene symbol_StartAA)

Row | Substance | ATS7_HUVEC_TAILS_frxns_mATS7inDB_AspGluN.total Intensity (mouse ADAMTS7 [1]) | SMC2 TAILS.total Intensity (mouse ADAMTS7 [2]) | SMC1 TAILS.total Intensity (mouse ADAMTS7 [3]) | ATS7_SMC_rd2_TAILS_frxns_matS7inDB_AspGluN_retry.totalIntensity (mouse ADAMTS7 [2]; [6]) | TAILS_SMC_Scaleup_fxns_mATS7i (mouse ADAMTS7 [3]; [7]) | other results
1 | ASMT_321 (LSSAGFR; listed as Homo sapiens) | 2.00E+09 | – | – | – | – | –
2 | BICD1_280 (NNDDKMNGHIHGPLVKLNGDYR; listed as Homo sapiens) | 7.87E+09 | – | – | – | – | –
3 | CLU_267 (FQHPPTEFIR; listed as Homo sapiens) | 9.81E+08 | – | – | – | – | –
4 | COL1A2_866 (LLGAPGILGLPGSR; listed as Homo sapiens) | – | 4.62E+10 | 7.88E+09 | – | – | ATS7_SMC_rd2_TAILS_frxns_matS7inDB_AspGluN_retry.totalIntensity (mouse ADAMTS7 [2]; [4]): 4.62E+10; TAILS_SMC_Scaleup_fxns_mATS7i (mouse ADAMTS7 [3]; [5]): 7.88E+09
5 | COL1A2_960 (AGAPGPHGPVGPAGKHGNR; listed as Homo sapiens) | – | 3.12E+09 | 4.57E+08 | – | – | ATS7_SMC_rd2_TAILS_frxns_matS7inDB_AspGluN_retry.totalIntensity (mouse ADAMTS7 [2]; [4]): 3.12E+09; TAILS_SMC_Scaleup_fxns_mATS7i (mouse ADAMTS7 [3]; [5]): 4.57E+08
6 | COL1A2_1028 (LQGLPGIAGHHGDQGAPGSVGPAGPR; listed as Homo sapiens) | – | 9.44E+08 | 1.05E+09 | – | – | ATS7_SMC_rd2_TAILS_frxns_matS7inDB_AspGluN_retry.totalIntensity (mouse ADAMTS7 [2]; [4]): 9.44E+08; TAILS_SMC_Scaleup_fxns_mATS7i (mouse ADAMTS7 [3]; [5]): 1.05E+09
7 | COL4A2_71 (YNGPPGLQGFPGLQGR; listed as Homo sapiens) | – | 2.73E+08 | 6.55E+07 | – | – | ATS7_SMC_rd2_TAILS_frxns_matS7inDB_AspGluN_retry.totalIntensity (mouse ADAMTS7 [2]; [4]): 2.73E+08; TAILS_SMC_Scaleup_fxns_mATS7i (mouse ADAMTS7 [3]; [5]): 6.55E+07
8 | CTGF_173 (TVVGPALAAYR; listed as Homo sapiens) | 3.77E+10 | – | – | – | – | –
9 | CTGF_174 (VVGPALAAYR; listed as Homo sapiens) | 5.59E+08 | – | – | – | – | –
10 | ERAP2_718 (ISENLKR; listed as Homo sapiens) | 3.67E+08 | – | – | – | – | –
11 | EWSR1_87 (YSQPVQGYGTGAY; listed as Homo sapiens) | 1.50E+08 | – | – | – | – | –
12 | FBLN2_259 (ALGPPAPVQAKAR; listed as Homo sapiens) | – | 8.11E+08 | 1.04E+08 | – | – | ATS7_SMC_rd2_TAILS_frxns_matS7inDB_AspGluN_retry.totalIntensity (mouse ADAMTS7 [2]; [4]): 8.11E+08; TAILS_SMC_Scaleup_fxns_mATS7i (mouse ADAMTS7 [3]; [5]): 1.04E+08
13 | FBLN2_260 (LGPPAPVQAKAR; listed as Homo sapiens) | – | 6.60E+09 | 7.69E+08 | – | – | ATS7_SMC_rd2_TAILS_frxns_matS7inDB_AspGluN_retry.totalIntensity (mouse ADAMTS7 [2]; [4]): 6.60E+09; TAILS_SMC_Scaleup_fxns_mATS7i (mouse ADAMTS7 [3]; [5]): 7.69E+08
14 | FBN1_53 (LKGPNVCGSR; listed as Homo sapiens) | – | 2.58E+09 | 8.48E+08 | – | – | ATS7_SMC_rd2_TAILS_frxns_matS7inDB_AspGluN_retry.totalIntensity (mouse ADAMTS7 [2]; [4]): 2.58E+09; TAILS_SMC_Scaleup_fxns_mATS7i (mouse ADAMTS7 [3]; [5]): 8.48E+08
15 | FN1_34 (QQMVQPQSPVAVSQSKPGCY; listed as Homo sapiens) | 5.42E+09 | – | – | – | – | –
16 | FN1_293 (VYQPQPHPQPPPYGHCVT; listed as Homo sapiens) | 7.01E+10 | – | – | – | – | –

Row | Substance | ATS7_HUVEC_TAILS_frxns_mATS7inDB_AspGluN.total Intensity (mouse ADAMTS7 [1]) | SMC2 TAILS.total Intensity (mouse ADAMTS7 [2]) | SMC1 TAILS.total Intensity (mouse ADAMTS7 [3]) | ATS7_SMC_rd2_TAILS_frxns_matS7inDB_AspGluN_retry.totalIntensity (mouse ADAMTS7 [2]; [6]) | TAILS_SMC_Scaleup_fxns_mATS7i (mouse ADAMTS7 [3]; [7]) | other results
17 | FN1_1144 (TPGVEYVYTIQVLR; listed as Homo sapiens) | 2.58E+08 | – | – | – | – | –
18 | GSN_413 (HIANVER; listed as Homo sapiens) | – | 1.39E+09 | 2.44E+09 | 1.39E+09 | – | TAILS_SMC_Scaleup_fxns_mATS7i (mouse ADAMTS7 [3]; [5]): 2.44E+09
19 | HSPG2_2333 (LAYPAGSTQPIR; listed as Homo sapiens) | – | 3.02E+08 | 5.74E+07 | 3.02E+08 | – | TAILS_SMC_Scaleup_fxns_mATS7i (mouse ADAMTS7 [3]; [5]): 5.74E+07
20 | IGFBP3_31 (SAGLGPVVR; listed as Homo sapiens) | – | 1.02E+09 | 4.82E+08 | 1.02E+09 | 4.82E+08 | –
21 | IGFBP3_32 (AGLGPVVR; listed as Homo sapiens) | – | 5.97E+09 | 2.11E+09 | 5.97E+09 | 2.11E+09 | –
22 | LOXL1_219 (VASAGVIYPYQPR; listed as Homo sapiens) | – | 4.27E+08 | 2.12E+07 | 4.27E+08 | 2.12E+07 | –
23 | LOXL2_38 (QQPAPEYHQPQAPANVAKIQLR; N-terminal label (q); listed as Homo sapiens) | – | 1.65E+08 | 2.79E+08 | 1.65E+08 | 2.79E+08 | –
24 | LOX_58 (LSLGSQYQPQR; listed as Homo sapiens) | – | 6.15E+07 | 2.82E+08 | 6.15E+07 | 2.82E+08 | –
25 | LOX_123 (HWFQAGYSTSR; listed as Homo sapiens) | – | 6.25E+08 | 1.50E+08 | 6.25E+08 | 1.50E+08 | –
26 | LOX_126 (QAGYSTSR; listed as Homo sapiens) | – | – | 4.18E+06 | 1.03E+08 | 4.18E+06 | –
27 | LTBP1_540 (HQQVIPHVYPVAAKTQLGR; listed as Homo sapiens) | – | 8.09E+08 | 1.90E+09 | 8.09E+08 | 1.90E+09 | –
28 | NID2_951 (YAYPGAR; listed as Homo sapiens) | – | 2.03E+09 | 3.51E+08 | 2.03E+09 | 3.51E+08 | –
29 | PPP1R18_295 (LSETLTR; listed as Homo sapiens) | – | 1.25E+08 | 7.16E+07 | 1.25E+08 | 7.16E+07 | –
30 | VIM_314 (QESTEYR; listed as Homo sapiens) | – | 7.47E+08 | 4.88E+07 | – | – | ATS7_SMC_rd2_TAILS_frxns_matS7inDB_AspGluN_retry.totalIntensity (mouse ADAMTS7 [2]; [8]): 7.47E+08; TAILS_SMC_Scaleup_fxns_mATS7i (mouse ADAMTS7 [3]; [9]): 4.88E+07
31 | VIM_333 (LKGTNESLER; listed as Homo sapiens) | – | 1.10E+08 | 2.04E+08 | – | – | ATS7_SMC_rd2_TAILS_frxns_matS7inDB_AspGluN_retry.totalIntensity (mouse ADAMTS7 [2]; [8]): 1.10E+08; TAILS_SMC_Scaleup_fxns_mATS7i (mouse ADAMTS7 [3]; [9]): 2.04E+08
